This passage reports binding results from article PMC4393111.

Sequences of proteins named here, by UniProt entry; tags and fusion partners are left off. A change or cut given only in a name is not applied to a line headed by its entry.
UniProt P49841: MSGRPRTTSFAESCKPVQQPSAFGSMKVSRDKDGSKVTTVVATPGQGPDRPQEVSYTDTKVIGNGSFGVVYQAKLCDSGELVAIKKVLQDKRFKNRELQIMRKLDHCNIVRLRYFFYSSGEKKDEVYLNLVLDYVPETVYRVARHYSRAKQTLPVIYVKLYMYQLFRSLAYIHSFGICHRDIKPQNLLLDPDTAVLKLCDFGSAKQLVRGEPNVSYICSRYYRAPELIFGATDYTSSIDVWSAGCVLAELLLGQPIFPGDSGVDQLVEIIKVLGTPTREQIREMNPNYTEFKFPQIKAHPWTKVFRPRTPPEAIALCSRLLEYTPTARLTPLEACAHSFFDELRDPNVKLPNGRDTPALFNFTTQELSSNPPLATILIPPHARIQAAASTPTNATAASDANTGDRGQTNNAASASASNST
UniProt P61006: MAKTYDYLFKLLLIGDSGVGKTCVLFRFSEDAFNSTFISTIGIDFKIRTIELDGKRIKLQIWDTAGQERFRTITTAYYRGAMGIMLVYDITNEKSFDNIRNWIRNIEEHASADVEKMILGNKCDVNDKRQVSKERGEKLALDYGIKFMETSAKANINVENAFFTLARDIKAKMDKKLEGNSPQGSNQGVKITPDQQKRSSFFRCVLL

No constants are given. Whether binding was seen depends on the method and setting. Binding seen in cells or lysates may run through a third protein. Some entries that bind do so weakly or less than the wild type. For some of these results: Sequences can lack the tags named with a protein.

One assay addresses T1, GST-GDI2 (human) (UniProt P50395).
T1 sequence: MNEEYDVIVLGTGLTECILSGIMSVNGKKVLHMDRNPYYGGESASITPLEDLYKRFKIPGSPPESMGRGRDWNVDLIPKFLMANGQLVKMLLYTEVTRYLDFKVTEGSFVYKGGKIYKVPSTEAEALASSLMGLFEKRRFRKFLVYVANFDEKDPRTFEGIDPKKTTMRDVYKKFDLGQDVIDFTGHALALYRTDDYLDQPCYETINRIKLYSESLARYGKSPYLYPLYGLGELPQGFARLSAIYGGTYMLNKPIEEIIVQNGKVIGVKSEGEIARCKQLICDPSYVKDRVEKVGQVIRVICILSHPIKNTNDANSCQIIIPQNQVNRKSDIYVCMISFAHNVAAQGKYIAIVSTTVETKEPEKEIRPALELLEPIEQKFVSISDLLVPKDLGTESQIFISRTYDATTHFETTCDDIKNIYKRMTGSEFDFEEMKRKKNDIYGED
Nature of the assay: pull-down; GST or GST-GDI2 on GST affinity beads in PBS, 4°C 1 h, then cell lysate 1 h at 4°C, three washes with PBS; blot for endogenous Rab8; only the target purified.

In assay [1] the target is GFP-GSK3β (wild type) (human) (UniProt P49841). Nature of the assay: co-IP; GFP-tagged protein expressed in HEK 293T cells, endogenous partner blotted in its immunoprecipitate; Fig 5B: G0 phase, with or without BIO or CHIR99021.
Assay [2] concerns the target GFP-Rab8^T22N (UniProt P61006). The experiment in a line: co-IP; both partners co-expressed with tags in HEK 293T cells (some in G0 phase; some treated with the GSK3 inhibitors BIO or CHIR99021, the CK1 inhibitor D4476 or the CK2 inhibitor CX4945); IP of the GFP-, CFP/YFP-tagged partner; IP buffer 0.1% NP-40, 50 mM HEPES pH 7.00, 125 mM NaCl, 4°C.
For assay [3], the target named is GFP-Rab8^T22N (UniProt P61006). Nature of the assay: co-IP; GFP-tagged protein expressed in HEK 293T cells, endogenous partner blotted in its immunoprecipitate; Fig 5B: G0 phase, with or without BIO or CHIR99021.

Turning to “endogenous Rab8 (cell lysate of Fig 3B, cell line not stated) (from UniProt P61006 1-207)”, the binding result with GST-GDI2 (human) was “binds”.

B1: endogenous Dzip1 of HEK 293T cells (protein, UniProt Q86YF9 1-867)
chain: MQAEAADWFSSMPFQKHVYYPLASGPEGPDVAVAAAAAGAASMACAPPSAASGPLPFFQFRPRLESVDWRRLSAIDVDKVAGAVDVLTLQENIMNITFCKLEDEKCPHCQSGVDPVLLKLIRLAQFTIEYLLHSQEFLTSQLHTLEERLRLSHCDGEQSKKLLTKQAGEIKTLKEECKRRKKMISTQQLMIEAKANYYQCHFCDKAFMNQAFLQSHIQRRHTEENSHFEYQKNAQIEKLRSEIVVLKEELQLTRSELEAAHHASAVRFSKEYEMQKTKEEDFLKLFDRWKEEEKEKLVDEMEKVKEMFMKEFKELTSKNSALEYQLSEIQKSNMQIKSNIGTLKDAHEFKEDRSPYPQDFHNVMQLLDSQESKWTARVQAIHQEHKKEKGRLLSHIEKLRTSMIDDLNASNVFYKKRIEELGQRLQEQNELIITQRQQIKDFTCNPLNSISEPKGNPLAWQAFESQPAAPAVPMNAPALHTLETKSSLPMVHEQAFSSHILEPIEELSEEEKGRENEQKLNNNKMHLRKALKSNSSLTKGLRTMVEQNLMEKLETLGINADIRGISSDQLHRVLKSVESERHKQEREIPNFHQIREFLEHQVSCKIEEKALLSSDQCSVSQMDTLSTGEVPKMIQLPSKNRQLIRQKAVSTDRTSVPKIKKNVMEDPFPRKSSTITTPPFSSEEEQEDDDLIRAYASPGPLPVPPPQNKGSFGKNTVKSDADGTEGSEIEDTDDSPKPAGVAVKTPTEKVEKMFPHRKNVNKPVGGTNVPEMFIKKEELQELKCADVEDEDWDISSLEEEISLGKKSGKEQKEPPPAKNEPHFAHVLNAWGAFNPKGPKGEGLQENESSTLKSSLVTVTDWSDTSDV
B1: the binding result in assay [1] was “binds”.

B2: Myc-GDI2 (protein, UniProt P50395 1-445)
chain: T1 sequence
B2: in the assay with GFP-Rab8^T22N [2], the binding result was “binds”.

B3: endogenous GDI2 of HEK 293T cells (protein, UniProt P50395 1-445)
chain: T1 sequence
With B3, in the assay with GFP-Rab8^T22N [3], the binding result was “binds”.
